The test can be described thus: qHTS Assay for Modulators of Lamin A Splicing. The note with it: HeLa LMNA splicing GFP/RFP minigene ratio, 48 h. An outline of the steps: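 S3 HeLa stable clones carrying a lamin A-EGFP splicing minigene plus DsRed2 were seeded at 600 cells/well in Opti-MEM with 2% FBS, pin-dosed and incubated 48 h at 37°C. Acumen cytometry (488 nm) gave the GFP/RFP total-intensity ratio.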

The mark [1] stands for this setting: measured here: RFP viability control channel.
[2] abbreviates: measured here: GFP splicing reporter channel.

AC50 data for 56 molecules are collected here from PubChem BioAssay AID1487 (National Center for Advancing Translational Sciences (NCATS), 2009).

The list shows a part of the results. Shown are side measurements of this screen, not its main read-out; they come without a call. Compounds called inactive in the main read-out are mostly missing here. Words in brackets tell the shape of the fitted curve; partial curves, single points and poor fits give uncertain potencies.

On to `O=C(N/N=C/c1ccncc1)c1cc(Br)ccc1OCc1ccccc1`, for which the AC50 under setting [1] is 15.8 µM [rising, single point].
`COc1ccc(-c2noc(COc3ccc(C)cc3C)n2)cc1OC`: the AC50 under setting [2] is 5.62 µM [falling, partial curve, poor fit].
Consider `CCOC(=O)c1sc(=NC(=O)c2cccc(OC)c2)n(C)c1C`, for which the AC50 under setting [1] was 10 µM [rising, single point].
Still for that read-out and setting: for `O=[N+]([O-])c1cccc(CN(CCO)Cc2ccccc2)c1` the value was 35.5 µM [falling, single point]; for `Fc1ccc(-c2cn3cc(C(F)(F)F)cc(Cl)c3n2)cc1`, 35.5 µM [falling, single point]; for `Cn1nc(CC(=O)NC2CCCCCC2)c2ccccc2c1=O`, 14.1 µM [rising, single point].
Regarding `CCOc1ccc(NC(=S)N2CCCN(Cc3cc(C)ccc3C)C2)cc1`, the AC50 was 35.5 µM [falling, single point] under setting [2] and 35.5 µM [falling, single point] under setting [1].
In the case of `NC(=O)COC(=O)/C=C/c1ccccc1[N+](=O)[O-]`, the AC50 under setting [1] is 10 µM [rising, partial curve, poor fit].
For `CCc1c(C)nc2ncnn2c1N1CCCC(C(=O)NCCc2ccccc2)C1` (centres undefined), the AC50 was 14.1 µM [rising, single point] under setting [2] and 20 µM [rising, single point] under setting [1].
For `CCOc1ccc(NC(=S)NCCCc2ccccc2)cc1`, under setting [1], the AC50 is 2.24 µM [falling, partial curve, poor fit].
With `O=C(NC1CCCC1)C(c1ccc(O)cc1)N(CC1CCCO1)C(=O)C1COc2ccccc2O1` (centres undefined), the AC50 is 11.2 µM [rising, partial curve, poor fit] under setting [2] and 10 µM [rising, partial curve, poor fit] under setting [1].
`Cc1cccc(-c2nc(C)c(CCNC(=O)C(=O)Nc3c(C)cc(C)cc3C)s2)c1`: under setting [1], the AC50 is 3.16 µM [falling, partial curve, poor fit].
Consider `COc1cc2c(cc1OC)C(C)N(C(=O)c1ccc(Br)o1)CC2` (centres undefined), for which the AC50 by setting is: under setting [2], 17.8 µM [rising, single point]; under setting [1], 22.4 µM [rising, single point].
In the case of `CCOP(=O)(c1ccccc1)c1nc(-c2ccccc2Cl)oc1N1CCCCC1` (centres undefined), the AC50 was 35.5 µM [falling, single point] under setting [2] and 35.5 µM [falling, single point] under setting [1].
Regarding `NC(=O)C(=O)N/N=C/c1ccc([N+](=O)[O-])o1`, the AC50 under setting [2] is 2.82 µM [falling, single point].
In the case of `CCc1[nH]nc2c1C1(CCOC1C)C(C#N)=C(N)O2` (centres undefined), the AC50 reads like this: under setting [2], 3.55 µM [rising, single point]; under setting [1], 5.62 µM [rising, single point].
With `CC(C)CNC(=O)c1cccc(NC(=O)Cc2ccc(Br)cc2)c1`, the AC50 runs as follows: under setting [2], 0.0398 µM [rising, full curve, poor fit]; under setting [1], 20 µM [rising, single point].
In the case of `C=C(C)c1cccc(C(C)(C)NC(=O)Nc2ccc(C(C)=O)cc2)c1`, the AC50 under setting [1] was 35.5 µM [rising, single point].
`O=C(O)c1ccc(Cl)c(S(=O)(=O)Nc2ccccc2N2CCOCC2)c1`: the AC50 under setting [2] was 6.31 µM [rising, partial curve, poor fit] and the AC50 under setting [1] was 0.02 µM [rising, full curve].
Turning to `C/C=C/c1ccc(OCC(=O)Nc2ccc(OC)c(OC)c2)c(OC)c1`, the AC50 under setting [1] is 35.5 µM [rising, single point].
On to `Cc1sc(NC(=O)c2ccco2)c(C(=O)c2ccc(Cl)cc2)c1C`, for which the AC50 under setting [2] is 35.5 µM [rising, single point] and the AC50 under setting [1] is 35.5 µM [rising, single point].
For the molecule `CCOc1ccccc1C(=O)N(C)Cc1cc2ccccc2[nH]c1=O`, under setting [1], the AC50 is 7.08 µM [rising, partial curve, poor fit].
As to `Cc1nn(Cc2ccccc2Cl)c2sc(C(=O)Nc3nccs3)cc12`, the AC50 under setting [2] was 6.31 µM [rising, single point].
With `CCOC(=O)C1=C(NC(=S)NC(=O)c2ccccc2)c2ccccc2CC1(C)CC` (centres undefined), the AC50 was 12.6 µM [rising, partial curve] under setting [2] and 11.2 µM [rising, partial curve] under setting [1].
As to `Cc1cccc(-c2nc(CS(=O)CC(=O)NC3CCCC3)c(C)o2)c1` (centres undefined), the AC50 under setting [1] is 15.8 µM [rising, single point].
Same read-out and setting: next, `O=c1cc(-c2ccccc2)nc(SCc2ccccc2F)[nH]1`: 0.0501 µM [falling, partial curve].
Regarding `Cc1sc(N)c(C(=O)c2ccccc2)c1C`, the AC50 was 0.00891 µM [falling, full curve, poor fit] under setting [2] and 0.0355 µM [falling, full curve, poor fit] under setting [1].
Turning to `O=C(CS(=O)(=O)c1ccccc1)N1CCc2ccccc21`, the AC50 under setting [2] was 0.158 µM [rising, full curve, poor fit].
`COc1ccc(-c2csc(NS(=O)(=O)c3ccc([N+](=O)[O-])cc3)n2)cc1`: the AC50 was 0.0282 µM [rising, full curve, poor fit] under setting [2] and 22.4 µM [rising, single point] under setting [1].
For the molecule `COc1cc2c(cc1NC(=O)c1ccc(C)c([N+](=O)[O-])c1)oc1ccccc12`, under setting [1], the AC50 is 25.1 µM [rising, single point].
Consider `N#Cc1nc(COc2ccc(-c3ccccc3)cc2)oc1NCc1cccnc1`, for which the AC50 is, setting by setting: under setting [2], 12.6 µM [rising, partial curve]; under setting [1], 35.5 µM [rising, single point].
Turning to `O=C(Oc1ccc2c(=O)c(Oc3ccc4ccccc4c3)coc2c1)c1ccco1`, the AC50 under setting [1] is 20 µM [rising, partial curve].
Still for that read-out and setting: for `COCc1nc2ccccc2n1CCOc1ccccc1OC` the value was 31.6 µM [rising, single point]; for `CN1C(=S)N(c2cccnc2)C(=O)/C1=C\c1ccc(C(C)(C)C)cc1`, 0.112 µM [rising, full curve, poor fit].
The same measure, in the same setting: next, `N=C1S/C(=C\c2ccco2)C(=O)N1c1nccs1`: 15.8 µM [rising, partial curve].
Take `Cc1cccc(N=C2NC(=O)S/C2=C\c2ccco2)c1`: the AC50 under setting [1] was 22.4 µM [rising, single point].
Still for that read-out and setting: for `Cc1cccc(NC(=O)C2CCCN(S(=O)(=O)c3cccc4nsnc34)C2)c1` (centres undefined) the value was 12.6 µM [rising, single point]; for `COc1ccc(N2CCN(C(=O)CCc3ccc(S(=O)(=O)NCC(C)C)cc3)CC2)cc1`, 11.2 µM [rising, partial curve]; for `CCc1nn2c(=O)cc(COC(=O)c3cccc(NC(=O)COc4ccccc4F)c3)nc2s1`, 35.5 µM [rising, single point].
On to `Cc1cccc(NC(=O)CSc2nc(C)cc(C)c2C(=O)Nc2ccc(Cl)cc2)c1`, for which the AC50 under setting [2] was 5.62 µM [rising, partial curve, poor fit].
As for `CCOC(=O)N1CCN(C(=O)c2ccc(C)c(S(=O)(=O)Nc3ccccc3)c2)CC1`, the AC50 under setting [2] was 4.47 µM [rising, partial curve, poor fit] and the AC50 under setting [1] was 17.8 µM [rising, partial curve, poor fit].
As for `CCOc1ccccc1N(C)C(=O)c1cc(S(=O)(=O)NCc2ccc(C)cc2)ccc1F`, the AC50 under setting [1] is 35.5 µM [falling, single point].
Same read-out and setting: for `Nc1ncnc(NNC(=O)CNC(=O)c2c(F)cccc2Cl)c1[N+](=O)[O-]` the value was 6.31 µM [falling, partial curve, poor fit].
On to `O=S(=O)(Nc1ccc2c(c1)nc1n2CCOC1)c1ccc(Cl)cc1`, for which the AC50 runs as follows: under setting [2], 12.6 µM [rising, single point]; under setting [1], 14.1 µM [rising, single point].
For `OCc1ccccc1O`, the AC50 under setting [2] is 0.0141 µM [falling, full curve, poor fit].
With `COc1ccccc1N1CCN(CC(=O)c2c(C)[nH]c3cc(C)ccc23)CC1`, under setting [1], the AC50 is 7.94 µM [rising, partial curve, poor fit].
For the molecule `CC1CN(CC(=O)Nc2ccccc2Sc2ccccc2)CC(C)O1` (centres undefined), the AC50 under setting [1] was 22.4 µM [rising, single point].
The same measure, in the same setting: next, `CC(c1ccon1)N(C)C(=O)c1ccc(OC2CCN(C(=O)C3CC3)CC2)cc1` (centres undefined): 35.5 µM [falling, single point]; `N.N.N.N.N.N.N.N.N.N.N.N.N.N.O.O.[Cl-].[Cl-].[Cl-].[Cl-].[Cl-].[Cl-].[Ru].[Ru].[Ru]`: 2.51 µM [falling, single point].
On to `CCOc1ccc(-c2nc(CSCC(=O)NCCc3ccccc3)c(C)o2)cc1`, for which, under setting [2], the AC50 was 0.355 µM [rising, full curve, poor fit].
Consider `CC1Cc2nc(SCC(=O)N3CCCc4ccccc43)n(C)c(=O)c2S1` (centres undefined), for which the AC50 under setting [1] was 11.2 µM [rising, partial curve, poor fit].
In the case of `CCN1CCN(c2cc(C)c3cc(NC(=O)c4cc(OC)c(OC)c(OC)c4)ccc3n2)CC1`, under setting [1], the concentration at half-maximal activity (AC50) was 28.2 µM [rising, single point].
Consider `COc1ccc(NC(=O)CN2CCN(c3nc(-c4ccc(F)cc4)cs3)CC2)c(OC)c1`, for which the AC50 is 0.891 µM [falling, full curve, poor fit] under setting [2] and 1.41 µM [falling, partial curve] under setting [1].
For the molecule `c1csc(C2Nc3ccccc3-c3nc4ccccc4n32)c1` (centres undefined), the AC50 is, setting by setting: under setting [2], 11.2 µM [rising, partial curve]; under setting [1], 20 µM [rising, partial curve, poor fit].
Consider `COC(=O)CC1COc2ccccc2N1C(=O)c1cccc(C(F)(F)F)c1` (centres undefined), for which the AC50 is, setting by setting: under setting [2], 35.5 µM [falling, single point]; under setting [1], 0.0224 µM [falling, full curve, poor fit].
As for `COc1ccc(-c2cc(C(C)=O)c(C)n2CCC(=O)Nc2cccc(C)c2C)cc1`, the AC50 under setting [1] is 0.00447 µM [falling, full curve, poor fit].
